These are yes or no findings as the source states them, for the method shown. In cells and extracts the contact can be indirect. Some binding calls cover weakened binding; strength is not graded here.
Target: T1, tripartite motif-containing 24 (TRIM24) (human (endogenous in THP-1)) (UniProt O15164)
T1 sequence: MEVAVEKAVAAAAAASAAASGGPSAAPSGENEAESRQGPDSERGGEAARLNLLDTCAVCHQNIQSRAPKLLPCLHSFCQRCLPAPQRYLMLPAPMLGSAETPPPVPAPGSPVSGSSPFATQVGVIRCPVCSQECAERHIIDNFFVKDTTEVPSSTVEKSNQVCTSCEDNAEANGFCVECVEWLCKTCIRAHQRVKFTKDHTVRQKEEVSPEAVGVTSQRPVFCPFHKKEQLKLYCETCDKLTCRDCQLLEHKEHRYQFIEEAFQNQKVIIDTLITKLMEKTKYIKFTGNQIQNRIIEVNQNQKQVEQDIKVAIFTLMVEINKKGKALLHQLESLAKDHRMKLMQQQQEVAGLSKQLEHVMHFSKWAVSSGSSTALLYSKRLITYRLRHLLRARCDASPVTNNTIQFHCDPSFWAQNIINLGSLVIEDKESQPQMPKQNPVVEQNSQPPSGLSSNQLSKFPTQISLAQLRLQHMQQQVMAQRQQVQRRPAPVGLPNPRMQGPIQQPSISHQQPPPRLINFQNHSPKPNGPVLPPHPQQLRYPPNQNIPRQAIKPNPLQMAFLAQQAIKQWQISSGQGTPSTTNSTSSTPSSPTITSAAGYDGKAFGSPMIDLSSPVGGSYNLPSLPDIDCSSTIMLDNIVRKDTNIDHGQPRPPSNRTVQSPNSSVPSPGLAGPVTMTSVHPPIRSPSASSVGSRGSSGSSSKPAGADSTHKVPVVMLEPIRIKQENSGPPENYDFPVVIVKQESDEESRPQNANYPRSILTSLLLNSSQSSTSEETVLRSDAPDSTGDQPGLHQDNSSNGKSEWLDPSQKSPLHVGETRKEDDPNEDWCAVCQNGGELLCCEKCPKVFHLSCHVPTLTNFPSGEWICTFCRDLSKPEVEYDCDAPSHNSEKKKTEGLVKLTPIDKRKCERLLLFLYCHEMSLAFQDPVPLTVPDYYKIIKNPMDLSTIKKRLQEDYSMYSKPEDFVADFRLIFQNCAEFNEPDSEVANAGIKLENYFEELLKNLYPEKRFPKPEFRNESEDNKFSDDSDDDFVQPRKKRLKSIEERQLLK
Experiment: co-IP; macrophage lysates (Pierce IP lysis buffer with protease inhibitor cocktail); IP with anti-USP7, anti-TRIM24, anti-STAT3, anti-STAT1, anti-STAT6 or control IgG pre-conjugated to protein A/G PLUS-Agarose, overnight at 4 °C; detection by Western blotting

Sequences of proteins named here, by UniProt entry; tags and fusion partners are left off.
UniProt P40763: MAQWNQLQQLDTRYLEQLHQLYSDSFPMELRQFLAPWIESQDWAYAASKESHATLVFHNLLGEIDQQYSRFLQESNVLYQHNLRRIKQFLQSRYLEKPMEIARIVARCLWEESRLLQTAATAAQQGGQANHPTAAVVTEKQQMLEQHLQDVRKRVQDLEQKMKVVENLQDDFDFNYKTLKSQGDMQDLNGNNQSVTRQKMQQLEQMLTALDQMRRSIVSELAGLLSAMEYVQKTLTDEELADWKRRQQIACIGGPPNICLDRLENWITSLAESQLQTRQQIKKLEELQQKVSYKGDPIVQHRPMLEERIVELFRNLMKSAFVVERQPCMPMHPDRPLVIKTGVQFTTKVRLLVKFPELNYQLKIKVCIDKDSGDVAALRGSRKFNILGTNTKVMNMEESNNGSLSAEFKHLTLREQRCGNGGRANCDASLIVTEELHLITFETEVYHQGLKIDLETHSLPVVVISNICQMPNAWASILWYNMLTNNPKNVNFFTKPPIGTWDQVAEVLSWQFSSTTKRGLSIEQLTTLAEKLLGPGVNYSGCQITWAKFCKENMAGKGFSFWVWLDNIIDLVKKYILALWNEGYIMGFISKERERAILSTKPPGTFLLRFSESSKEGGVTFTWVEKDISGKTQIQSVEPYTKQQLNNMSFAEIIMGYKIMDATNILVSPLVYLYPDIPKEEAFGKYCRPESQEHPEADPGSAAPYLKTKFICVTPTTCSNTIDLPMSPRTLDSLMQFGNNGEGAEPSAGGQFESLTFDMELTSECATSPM
UniProt P42224: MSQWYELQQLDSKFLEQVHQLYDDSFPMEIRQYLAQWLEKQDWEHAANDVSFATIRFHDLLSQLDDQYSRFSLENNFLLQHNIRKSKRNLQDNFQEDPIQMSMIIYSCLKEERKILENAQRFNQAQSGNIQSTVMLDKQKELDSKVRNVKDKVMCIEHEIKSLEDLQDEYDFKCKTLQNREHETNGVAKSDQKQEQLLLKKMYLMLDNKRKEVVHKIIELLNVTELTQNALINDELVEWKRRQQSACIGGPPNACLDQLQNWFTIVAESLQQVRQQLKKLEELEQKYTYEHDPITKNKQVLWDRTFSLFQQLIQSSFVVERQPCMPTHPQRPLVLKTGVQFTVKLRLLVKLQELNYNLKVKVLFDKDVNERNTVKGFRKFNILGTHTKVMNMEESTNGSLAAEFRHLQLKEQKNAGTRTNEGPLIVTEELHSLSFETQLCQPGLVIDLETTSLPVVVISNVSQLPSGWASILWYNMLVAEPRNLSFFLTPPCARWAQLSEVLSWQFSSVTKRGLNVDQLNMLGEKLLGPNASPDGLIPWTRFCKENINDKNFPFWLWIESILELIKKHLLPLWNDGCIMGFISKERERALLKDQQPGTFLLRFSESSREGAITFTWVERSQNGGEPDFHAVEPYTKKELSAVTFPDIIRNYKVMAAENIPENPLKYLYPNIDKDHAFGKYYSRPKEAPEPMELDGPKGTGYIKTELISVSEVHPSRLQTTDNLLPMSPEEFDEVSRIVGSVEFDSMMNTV
UniProt Q93009: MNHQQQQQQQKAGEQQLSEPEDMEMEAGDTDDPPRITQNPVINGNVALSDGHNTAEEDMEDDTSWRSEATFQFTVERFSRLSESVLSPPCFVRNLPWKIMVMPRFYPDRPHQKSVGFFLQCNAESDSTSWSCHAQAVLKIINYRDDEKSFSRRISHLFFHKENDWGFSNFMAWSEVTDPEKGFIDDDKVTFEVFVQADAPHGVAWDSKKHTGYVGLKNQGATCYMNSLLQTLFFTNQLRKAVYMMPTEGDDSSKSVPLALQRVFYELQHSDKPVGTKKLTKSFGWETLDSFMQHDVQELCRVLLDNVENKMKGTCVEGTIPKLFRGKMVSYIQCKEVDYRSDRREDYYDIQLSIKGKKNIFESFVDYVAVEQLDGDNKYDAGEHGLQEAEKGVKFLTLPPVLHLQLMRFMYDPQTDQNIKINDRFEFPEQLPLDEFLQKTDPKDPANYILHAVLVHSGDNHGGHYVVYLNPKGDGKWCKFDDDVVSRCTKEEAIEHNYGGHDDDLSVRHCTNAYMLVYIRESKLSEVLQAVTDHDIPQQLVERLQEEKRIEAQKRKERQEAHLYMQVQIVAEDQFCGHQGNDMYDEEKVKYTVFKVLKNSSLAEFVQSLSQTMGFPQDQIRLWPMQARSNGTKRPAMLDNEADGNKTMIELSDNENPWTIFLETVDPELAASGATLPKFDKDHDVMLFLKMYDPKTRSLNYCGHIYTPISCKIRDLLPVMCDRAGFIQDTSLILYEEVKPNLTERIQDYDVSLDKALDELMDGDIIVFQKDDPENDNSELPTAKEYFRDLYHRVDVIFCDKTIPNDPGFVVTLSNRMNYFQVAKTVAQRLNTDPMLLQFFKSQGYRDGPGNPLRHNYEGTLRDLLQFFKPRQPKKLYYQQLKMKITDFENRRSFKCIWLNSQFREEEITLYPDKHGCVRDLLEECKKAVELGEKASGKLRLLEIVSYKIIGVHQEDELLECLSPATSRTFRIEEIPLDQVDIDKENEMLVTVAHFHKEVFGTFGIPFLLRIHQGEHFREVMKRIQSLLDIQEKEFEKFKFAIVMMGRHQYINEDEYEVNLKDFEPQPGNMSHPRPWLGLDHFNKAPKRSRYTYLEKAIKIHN

signal transducer and activator of transcription 3 (STAT3) (from UniProt P40763 1-770)
binding: binds

STAT1 (from UniProt P42224 1-750)
binding: no binding

Ubiquitin-specific processing protease 7 (USP7) (from UniProt Q93009 1-1102) (enzyme)
binding: binds

From article PMC10739934
